Laboratory results from paper PMC10041525, “New Dual Inhibitors of Bacterial Topoisomerases with Broad-Spectrum Antibacterial Activity and In Vivo Efficacy against Vancomycin-Intermediate Staphylococcus aureus” (Journal of Medicinal Chemistry, 2023).

Format: physicochemical
Details: solubility assay
Procedure: For the PBS, 2.38 g of disodium hydrogen phosphate dodecahydrate, 0.19 g of potassium dihydrogen phosphate, and 8.0 g of sodium chloride were added to distilled water (900 mL), and the solution was mixed overnight. […] Samples were prepared by weighing the exact mass of solid compounds (about 1 mg), and then, the appropriate volume of PBS was added to reach the final concentration of ∼1 mg/mL. […] The supernatant was diluted 3× with a 1:1 mixture of 0.1% TFA in water and acetonitrile and analyzed by HPLC. For the 7-point calibration curves, concentrated stock solutions of the compounds were prepared at concentrations of 10 and 0.5 mM in DMSO, which were diluted with a 1:1 mixture of 0.1% TFA in water and acetonitrile to the desired final concentrations and analyzed by HPLC. Results are given in μM as an average value of two independent experiments. For details on calibration curves, concentrations, analytical method, and HPLC method, see the Supporting Information.
Thermodynamic solubility assay
To determine thermodynamic solubility of compounds in PBS, calibration curves for the assayed compounds were prepared using seven concentrations. First, DMSO stock solutions of compounds at 10 mM and 0.5 mM concentration were prepared and then diluted (0.1% TFA in […]
Quality control (QC) samples were diluted from stock solutions with a 1:1 mixture of 0.1% TFA in water and acetonitrile to final concentrations of 60 µM, 20 µM, and 2 µM (6 µM, 2 µM, and 0.2 µM for 7f or 0.6 µM, 0.2 µM, and 0.02 µM for 7g).
Analytical reversed-phase UHPLC analyses were performed on Thermo Scientific Dionex UltiMate 3000 modular system (Thermo Fisher Scientific Inc., MA, USA). Waters Acquity UPLC® HSS C18 SB column (2.1 × 50 mm, 1.8 μm; Waters, Milford, MA, USA) was used at T […]
Method repeatability was determined by calculating the RSD from the separately prepared and analysed quality control samples (n = 3). […]
method (1 (or 0.1 or 0.01) µM to 100 (or 10 or 1) µM) was evaluated from the 7-point calibration […]
Solubility was determined in two independent experiments and results were calculated in […]

Row | Compound | Recovery
1 | Cc1[nH]c(C(=O)Nc2nc3c(N4CCOCC4)cc(C(=O)O)cc3s2)c(Cl)c1Cl [7a, 2-(3,4-Dichloro-5-methyl-1H-pyrrole-2-carboxamido)-4-morpholinobenzo[d]thiazole-6-carboxylic Acid] | 104.5%
2 | Cc1[nH]c(C(=O)Nc2nc3c(N4[C@@H]5CC[C@H]4COC5)cc(C(=O)O)cc3s2)c(Cl)c1Cl [7h, 4-((1R,5S)-3-Oxa-8-azabicyclo[3.2.1]octan-8-yl)-2-(3,4-dichloro-5-methyl-1H-pyrrole-2-carboxamido)benzo[d]thiazole-6-carboxylic Acid] | 103.3%
3 | Cc1[nH]c(C(=O)Nc2nc3c(N4CCOC(C(F)(F)F)C4)cc(C(=O)O)cc3s2)c(Cl)c1Cl (stereo not drawn) [7i, 2-(3,4-Dichloro-5-methyl-1H-pyrrole-2-carboxamido)-4-(2-(trifluoromethyl)morpholino)benzo[d]thiazole-6-carboxylic Acid] | 119.7%
